# Where “and” joins values, the source holds several entries; their conditions need not be identical. Equal entries are not always repeated. At least one read-out could not be matched to a standard name with certainty.
# Test system: uterine hypertrophy induced by androstenedione
# Experiment: Activity in vivo: inhibition of uterine hypertrophy induced by androstenedione
# Set-up: species or system rat (Sprague-Dawley)
# Settings: immature female rats, androstenedione 30 mg/kg for 4 days
# Method: The activity in vivo of aromatase inhibition by compounds of formula (I) according to the invention has been tested according to the model established by Bharnagar et al. (1990).
# In general, immature female rats of the Sprague-Dawley line of a weight ranging from 40 to 50 g have been treated with a dose of androstenedione at 30 mg/kg for 4 days, in the absence or in the presence of doses of various compounds of formula (I).
# Four hours after administration of an aromatase inhibitor, the rats were sacrificed. Their uteruses were removed, cleared of adhering fat and conjunctive tissue, next the uteruses were weighed (wet weight). The dry weight of the uteruses was determined the following day after a step of drying for one night at 80° C.
Compound,% inhibition to doses (μg/Kg) (dose 1 μg/Kg),% inhibition to doses (μg/Kg) (dose 10 μg/Kg),% inhibition to doses (μg/Kg) (dose 100 μg/Kg),% inhibition to doses (μg/Kg) (dose 5 μg/Kg) [%]
Cn1c(=O)sc2cc(C(c3ccc(C#N)cc3)n3cncn3)ccc21 (stereo not drawn) [PCH158],60%,74%,68% and 100%,–
"N#Cc1ccc(C(c2ccc(C#N)cc2)n2cncn2)cc1 [Letrozole, reference compound]",57% and 59%,94% and 89%,–,86

# From patent publication US20070054899A1 (priority 2003, published 2007)
